# Assay results as given in the supplement of paper PMC12764529.
# ± gives the half width of the 95% confidence interval. The two proteases of the assay disagree for many of these sequences.
# How the values were obtained:
# [1] = folding stability dG unfold from trypsin proteolysis; higher = more stable
# Outline: (§1)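 Mini-proteins designed to be under 80 residues and free of cysteine were carried in a PA-tagged cDNA display construct and digested with trypsin and with chymotrypsin. Each protease was applied at 11 threefold-diluted concentrations, alongside a no-protease condition, before sequencing. K50 came from Bayesian fitting of the sequencing counts, and unfolding free energy was obtained by comparing it with a sequence-predicted unfolded-state K50 and a shared folded-state K50, for each protease separately or for both together. Designs were retained only if their AlphaFold2 dimer inter-PAE exceeded 15.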
# [2] = folding stability dG unfold (combined trypsin and chymotrypsin); higher = more stable
# Outline: as §1
# [3] = folding stability dG unfold from chymotrypsin proteolysis; higher = more stable
# Outline: as §1
Sequence,folding stability dG unfold [1] [kcal/mol],folding stability dG unfold [2] [kcal/mol],folding stability dG unfold [3] [kcal/mol]
SAPLLERLKELFPDAEIEVVEVEEVREVPPGRRVVRLTVRVRLPDGRVLRVELELRDGELVLRIELLPRSAG [r14_28_TrROS_Hall],1.83 ± 0.049,4.36 ± 0.15,4.94 ± 0.089
SAGGDFEIVEITSVEYDPETNTVTVKVTIRNKETGKTFVAEFEVNPEDKNTVTVRIYDKDGKLIAEFPSAGG [r13_658_TrROS_Hall],3.28 ± 0.12,5.5 ± 0.8,5.37 ± 0.22
SASESAVVEEEYTIDVTTVTPPGTPTTEPVRLTITRLPPNTVEVTLTAPDGKTVETRVIPLSVSLEELLSAG [r14_559_JUSTAS],0.413 ± 0.14,0.493 ± 0.16,0.134 ± 0.3
SKSISISIPKTAPNVLPEEIAANLASLGYDVEIVSVEFDPETGKVTVHYRVYNPNGELLVDVHVEIDFGDSA [r9_879_TrMRF],1.13 ± 0.028,3 ± 0.095,3.38 ± 0.064
SNMYMFRIDIDVEVKPNPGNGMVMVEFKIKYEYYRYDPDGNMEPIMEMDRTIKVWMSPNQAKDLAKELLKSA [r9_642_TrROS],2.74 ± 0.18,4.64 ± 0.26,5.17 ± 0.18
SAGGMLVYKIKITTEDGEEIEITIEAESEEEAKAAAEELAKKLGLEIKKIEIEKIELPEEVSEEELKSAGGS [r8_364_TrROS_Hall],1.8 ± 0.074,4.08 ± 0.12,4.41 ± 0.082
SAGKVYRIVVENEATGKKVTIEIFEDGTVKVEVDGKKIEIKLSEEDIEKIAELAKKLAPPGAKVKIEPVSAG [r5_791_TrROS_Hall],1.24 ± 0.073,3.17 ± 0.22,3.79 ± 0.14
SAGGSMSPDTVVESVEVTEVTVPVTLDDVPGAEVEVLTVTTTTTTVTPEGQLTSTTTTTTVPAAALSAGGSA [r2_448_JUSTAS],1.69 ± 0.056,0.886 ± 0.044,-0.376 ± 0.078
SAGGKLKTKIELFKGDDKEIIKSEHPDGGIGIADDDGEISEIIFFPDSGLVVVKLKNGKVVVLKAPKSAGGS [r16_602_TrMRF],0.434 ± 0.11,1.85 ± 0.25,2.43 ± 0.11
SAGGSAGGSAKIRLIFKTEEEARKAIEALLPEGAKAKIKVEKRKDGKKYVVVEIEFKEEEESAGGSAGGSAG [r3_87_TrROS_Hall],3.58 ± 0.24,3.57 ± 0.21,3.79 ± 0.23
SAGGSAGGSKKVKIVSIEEKEGFVKVKIKFPDGSEKTIVMSEEEIKELAEKLNVEVEIVEVEPSAGGSAGGS [r12_676_TrROS_Hall],-0.163 ± 0.11,1.42 ± 0.24,1.91 ± 0.15
SAGGATVKAPPPEVTLRLTVVTRTTTRNEATGETTERTEVRTLTLTFKPGETIDLAALLPPGATVVLESAGG [r13_753_TrROS_Hall],1.72 ± 0.074,3.31 ± 0.31,3.83 ± 0.19
SAMTEEEKKKKKEEEEKKKRELKIIVVAKTKDGKWKKIAEFTVKNKDMSIEELVKKLKDLGVEEVKIFPSAG [r14_318_TrROS_Hall],1.8 ± 0.082,2.67 ± 0.26,3.09 ± 0.093
SAGGSAGGSAGGSMIEVKVGNKTASALVVPDPESDNPIVLIKVDDKWYTVDPNGNIVPLPSAGGSAGGSAGG [r11_732_JUSTAS],-0.451 ± 0.038,1.18 ± 0.065,1.65 ± 0.012
SAGGKIIPITFIVPPEVEPEKAAKEIADEIAAFLKAKTDKKIEVKVESVEPLPNGDYLVRVLVIVEESAGGS [r8_156_TrMRF],3.3 ± 0.18,5.2 ± 0.18,5.44 ± 0.3
SAGGMSVEIQIEKNPETGLVLLTIKIGNETIVIPMTEEEAKEVIEEIKKKKPEPVKSPNGKISPVGESAGGS [r8_332_JUSTAS],-0.0384 ± 0.086,1.97 ± 0.11,2.33 ± 0.098

# Reprinted at random: two entries already listed
Sequence,folding stability dG unfold [1] [kcal/mol],folding stability dG unfold [2] [kcal/mol],folding stability dG unfold [3] [kcal/mol]
SAGGSMSPDTVVESVEVTEVTVPVTLDDVPGAEVEVLTVTTTTTTVTPEGQLTSTTTTTTVPAAALSAGGSA [r2_448_JUSTAS],1.69 ± 0.056,0.886 ± 0.044,-0.376 ± 0.078
SAGKVYRIVVENEATGKKVTIEIFEDGTVKVEVDGKKIEIKLSEEDIEKIAELAKKLAPPGAKVKIEPVSAG [r5_791_TrROS_Hall],1.24 ± 0.073,3.17 ± 0.22,3.79 ± 0.14

# The list continues:

Sequence,folding stability dG unfold [1] [kcal/mol],folding stability dG unfold [2] [kcal/mol],folding stability dG unfold [3] [kcal/mol]
SAGGSAMPDMTAEELAAEVAKKLPPGEKVLIKIRNKNGETKTFELGEDISDLPADEVTEIEIEVLPSAGGSA [r15_50_TrROS_Hall],0.248 ± 0.073,0.781 ± 0.054,1.05 ± 0.036
SAGGGDRRFLRIEFEFETPEEAEEAVRRLVAALGLPPERARVTRLGSRPRRVGDRTLYRVDLLIELPSAGGS [r16_240_TrMRF],1.32 ± 0.017,3.42 ± 0.048,3.897 ± 0.015
SAGGSKIKLPEGMKAEIEVVEVKVKYKYDKNGKPVKKVEEEKTIKVIKIKITDKNGKKFEFTFLLKSAGGSA [r2_218_TrROS_Hall],1.48 ± 0.096,3.12 ± 0.24,3.56 ± 0.11
SSIKIEKLEDDTYLLDIQLENNPDVTIRVRFSLNPDGTPYYEVEVLNPDGSKKRIRFPYGNIEDVLKALASA [r9_310_TrMRF],2.45 ± 0.075,4.14 ± 0.12,4.6 ± 0.081
SAGGMITPEEIQDLEVKPVPPEVYKATGYIEVTLYGPGGEPIATIKVKVDIKSLVKPNGPVLGKEKLISAGG [r13_864_JUSTAS],-0.262 ± 0.26,2.67 ± 0.27,3.25 ± 0.075
SAGGKKDKYIVEVEFKDGKKVTIEVDGKSIEEILEELKKLGAKEVKIKVYRNGKLIEEFTIKLPPGKSAGGS [r16_700_TrROS_Hall],1.53 ± 0.046,3.61 ± 0.16,4.08 ± 0.1
SAGGSAGGSAGGPKNLRAPRLPPKPKRFPVARVRVPFIAPHPDSDELYPLELEFTFYLGLSAGGSAGGSAGG [r7_64_TrMRF],0.465 ± 0.12,1.92 ± 0.095,2.72 ± 0.051
SAGGSAGGSMPAGAPVEVTLVVPLPDGPLLVLRAVVRRLPDGSAVVVAVEPGVATSLEELLRHSAGGSAGGS [r12_386_TrMRF],-1.2 ± 0.77,1.22 ± 0.059,1.702 ± 0.016
SAGGSLPKSAEVKVEVYEFKLNEEGYLLVVVTTPDGKVIVIPFKNPGKFSPETVKKIEELVKEIEGSAGGSA [r2_17_TrMRF],1.34 ± 0.07,3.48 ± 0.14,3.93 ± 0.092
SAGGSAGGKKKKKKKKYKVILLKVPPNMSEEEIKKLLEELLGIEKIEEIKIFKNKNGYLLVVIKSAGGSAGG [r6_515_TrROS_Hall],2.56 ± 0.18,4.69 ± 0.21,5.08 ± 0.16
SAGGSAGGSAGGSGPVPVTIKSVTTYPEKDVYKVETVPATPEPITITLSPEELSDVVILSAGGSAGGSAGGS [r4_51_JUSTAS],-1.69 ± 0.57,-0.561 ± 0.19,-0.437 ± 0.2
SAGGAEIKIEVEEKDGELVVKVTIKVPPGVTPEEIAAALKELFPEDVEVRIEKNEDGTLTVYVRFKPSAGGS [r8_255_TrROS_Hall],2.37 ± 0.082,4.12 ± 0.094,4.5 ± 0.087
SAGGSAKKKTYTLKIRIYIYNENGEKIKEIEIEIKVKTKEEALEAIKKLIEELEKKGYKIEKIEIESAGGSA [r15_1054_TrROS_Hall],2.98 ± 0.23,5.06 ± 0.65,5.45 ± 0.37
SAGGMYIVKIEVKVDGKTIEIYLLVPEEDLEEIEEELKKKIAEELNADEVEIKIEVYRLNEDGEIEPISAGG [r13_877_TrROS_Hall],2.21 ± 0.26,4.8 ± 0.23,5.17 ± 0.085
SAGGSAGGSAKMTAEELAKKLAEELEKKTGLKVKKVTVEYDKETNKVTITVEVDGKTYTIELSAGGSAGGSA [r18_145_TrROS_Hall],2.07 ± 0.13,3.92 ± 0.18,4.31 ± 0.14
